We go through 34 targets from the supplement of paper PMC10849652.

Amino acid sequences for entries named in this document (tags omitted). A change or cut given only in a name is not applied to a line headed by its entry.
UniProt P28066: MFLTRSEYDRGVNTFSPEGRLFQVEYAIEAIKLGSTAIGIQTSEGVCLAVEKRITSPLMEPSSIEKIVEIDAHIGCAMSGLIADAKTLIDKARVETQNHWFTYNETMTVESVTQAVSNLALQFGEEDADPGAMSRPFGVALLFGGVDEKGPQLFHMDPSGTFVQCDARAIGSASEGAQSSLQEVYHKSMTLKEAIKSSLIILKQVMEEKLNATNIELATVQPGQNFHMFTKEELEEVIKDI
UniProt P26599: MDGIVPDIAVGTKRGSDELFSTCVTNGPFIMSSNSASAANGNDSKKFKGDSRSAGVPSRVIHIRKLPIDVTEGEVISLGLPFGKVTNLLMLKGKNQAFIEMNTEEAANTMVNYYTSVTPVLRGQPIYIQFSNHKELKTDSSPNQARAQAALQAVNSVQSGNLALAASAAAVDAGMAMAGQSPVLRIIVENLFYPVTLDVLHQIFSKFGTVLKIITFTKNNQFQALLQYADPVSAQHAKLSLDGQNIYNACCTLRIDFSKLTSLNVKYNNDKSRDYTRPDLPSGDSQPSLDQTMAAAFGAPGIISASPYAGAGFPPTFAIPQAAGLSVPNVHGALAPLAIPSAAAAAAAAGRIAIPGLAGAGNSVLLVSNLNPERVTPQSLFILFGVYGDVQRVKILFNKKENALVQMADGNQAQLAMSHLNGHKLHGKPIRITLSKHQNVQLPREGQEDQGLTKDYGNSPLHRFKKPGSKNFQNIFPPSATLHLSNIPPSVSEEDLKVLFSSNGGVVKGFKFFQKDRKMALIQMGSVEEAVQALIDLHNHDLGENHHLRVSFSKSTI
UniProt Q9H939: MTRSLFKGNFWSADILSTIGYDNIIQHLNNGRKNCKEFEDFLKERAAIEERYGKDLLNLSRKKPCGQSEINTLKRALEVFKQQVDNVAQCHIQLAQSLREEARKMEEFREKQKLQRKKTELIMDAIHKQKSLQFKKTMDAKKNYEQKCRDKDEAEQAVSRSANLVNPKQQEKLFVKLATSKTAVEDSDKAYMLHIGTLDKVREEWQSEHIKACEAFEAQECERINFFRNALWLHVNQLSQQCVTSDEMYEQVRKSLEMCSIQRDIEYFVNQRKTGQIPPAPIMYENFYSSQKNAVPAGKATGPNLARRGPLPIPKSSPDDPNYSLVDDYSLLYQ
UniProt O60256: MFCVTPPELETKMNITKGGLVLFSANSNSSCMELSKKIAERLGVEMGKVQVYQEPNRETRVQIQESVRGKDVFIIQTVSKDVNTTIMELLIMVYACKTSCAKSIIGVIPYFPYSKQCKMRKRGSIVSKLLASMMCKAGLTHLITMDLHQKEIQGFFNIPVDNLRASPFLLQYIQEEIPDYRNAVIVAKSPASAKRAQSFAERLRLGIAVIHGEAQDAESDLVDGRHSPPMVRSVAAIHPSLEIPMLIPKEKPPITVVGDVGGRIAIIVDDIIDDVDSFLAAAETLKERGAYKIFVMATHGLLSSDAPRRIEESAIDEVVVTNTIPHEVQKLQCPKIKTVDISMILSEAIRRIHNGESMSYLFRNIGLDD
UniProt O14818: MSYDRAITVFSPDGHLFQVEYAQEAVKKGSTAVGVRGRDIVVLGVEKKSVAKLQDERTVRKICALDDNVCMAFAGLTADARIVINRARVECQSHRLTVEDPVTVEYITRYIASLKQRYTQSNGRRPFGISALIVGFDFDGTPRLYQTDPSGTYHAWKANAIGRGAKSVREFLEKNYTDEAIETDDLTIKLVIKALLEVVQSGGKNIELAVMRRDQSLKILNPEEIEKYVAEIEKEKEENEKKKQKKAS
UniProt P35998: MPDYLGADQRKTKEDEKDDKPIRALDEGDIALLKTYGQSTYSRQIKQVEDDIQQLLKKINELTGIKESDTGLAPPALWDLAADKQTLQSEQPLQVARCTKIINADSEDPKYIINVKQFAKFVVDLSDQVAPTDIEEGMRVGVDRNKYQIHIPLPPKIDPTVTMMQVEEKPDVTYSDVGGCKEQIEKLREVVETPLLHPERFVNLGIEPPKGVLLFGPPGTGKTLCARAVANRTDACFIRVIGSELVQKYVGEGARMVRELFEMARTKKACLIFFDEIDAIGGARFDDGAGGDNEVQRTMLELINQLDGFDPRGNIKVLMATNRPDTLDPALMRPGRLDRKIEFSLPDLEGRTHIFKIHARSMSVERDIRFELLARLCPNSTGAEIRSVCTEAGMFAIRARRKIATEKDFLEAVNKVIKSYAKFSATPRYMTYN
UniProt P07602: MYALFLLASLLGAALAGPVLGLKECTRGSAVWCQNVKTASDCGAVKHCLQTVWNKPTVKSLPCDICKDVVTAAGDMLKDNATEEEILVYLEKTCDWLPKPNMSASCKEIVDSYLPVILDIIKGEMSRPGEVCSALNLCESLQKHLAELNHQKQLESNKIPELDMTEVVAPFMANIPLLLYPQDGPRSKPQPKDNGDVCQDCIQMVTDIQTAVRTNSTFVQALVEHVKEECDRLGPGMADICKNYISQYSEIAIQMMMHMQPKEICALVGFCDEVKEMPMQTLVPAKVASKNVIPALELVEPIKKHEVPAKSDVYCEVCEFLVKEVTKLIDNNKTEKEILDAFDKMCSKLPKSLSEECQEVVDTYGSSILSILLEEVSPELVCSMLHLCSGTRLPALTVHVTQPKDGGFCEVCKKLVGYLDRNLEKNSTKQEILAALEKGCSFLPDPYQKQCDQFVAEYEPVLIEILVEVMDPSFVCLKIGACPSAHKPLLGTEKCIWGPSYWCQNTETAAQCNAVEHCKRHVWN
UniProt P61289: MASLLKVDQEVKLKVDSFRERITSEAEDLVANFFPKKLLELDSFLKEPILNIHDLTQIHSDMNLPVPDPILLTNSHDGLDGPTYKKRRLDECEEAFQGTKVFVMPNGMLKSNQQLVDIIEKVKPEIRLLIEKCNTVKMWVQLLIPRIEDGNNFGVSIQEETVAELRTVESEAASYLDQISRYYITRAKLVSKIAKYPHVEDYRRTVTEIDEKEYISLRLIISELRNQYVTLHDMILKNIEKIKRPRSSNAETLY
UniProt P20618: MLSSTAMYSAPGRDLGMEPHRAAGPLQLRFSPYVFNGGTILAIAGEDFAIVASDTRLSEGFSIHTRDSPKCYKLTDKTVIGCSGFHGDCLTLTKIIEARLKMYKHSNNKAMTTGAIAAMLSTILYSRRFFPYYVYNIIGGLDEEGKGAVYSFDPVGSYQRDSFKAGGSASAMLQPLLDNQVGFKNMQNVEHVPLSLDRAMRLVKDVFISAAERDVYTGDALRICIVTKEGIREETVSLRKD
UniProt Q96BW5: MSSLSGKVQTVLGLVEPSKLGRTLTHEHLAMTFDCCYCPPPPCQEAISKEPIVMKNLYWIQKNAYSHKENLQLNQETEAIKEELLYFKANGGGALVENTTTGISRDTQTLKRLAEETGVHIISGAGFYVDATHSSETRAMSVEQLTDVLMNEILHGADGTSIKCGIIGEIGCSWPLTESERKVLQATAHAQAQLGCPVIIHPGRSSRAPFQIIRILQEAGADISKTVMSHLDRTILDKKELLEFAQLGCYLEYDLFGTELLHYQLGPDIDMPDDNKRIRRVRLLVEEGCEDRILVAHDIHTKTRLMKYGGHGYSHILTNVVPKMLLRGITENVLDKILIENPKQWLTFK
UniProt P25786: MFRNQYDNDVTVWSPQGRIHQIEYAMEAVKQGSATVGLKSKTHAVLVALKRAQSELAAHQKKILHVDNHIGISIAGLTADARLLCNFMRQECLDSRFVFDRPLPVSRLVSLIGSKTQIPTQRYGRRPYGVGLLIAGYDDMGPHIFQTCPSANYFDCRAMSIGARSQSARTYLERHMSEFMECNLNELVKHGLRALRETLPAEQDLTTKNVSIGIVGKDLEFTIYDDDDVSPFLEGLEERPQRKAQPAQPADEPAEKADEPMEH
UniProt Q9UL46, whole entry, looked up: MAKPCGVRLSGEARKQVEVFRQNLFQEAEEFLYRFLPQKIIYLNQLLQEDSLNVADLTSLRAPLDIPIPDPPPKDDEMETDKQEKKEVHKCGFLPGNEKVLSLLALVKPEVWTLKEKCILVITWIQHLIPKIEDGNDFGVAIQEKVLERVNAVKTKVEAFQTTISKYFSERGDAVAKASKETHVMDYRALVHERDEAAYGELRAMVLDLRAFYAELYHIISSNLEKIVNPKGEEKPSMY
UniProt Q3MIT2: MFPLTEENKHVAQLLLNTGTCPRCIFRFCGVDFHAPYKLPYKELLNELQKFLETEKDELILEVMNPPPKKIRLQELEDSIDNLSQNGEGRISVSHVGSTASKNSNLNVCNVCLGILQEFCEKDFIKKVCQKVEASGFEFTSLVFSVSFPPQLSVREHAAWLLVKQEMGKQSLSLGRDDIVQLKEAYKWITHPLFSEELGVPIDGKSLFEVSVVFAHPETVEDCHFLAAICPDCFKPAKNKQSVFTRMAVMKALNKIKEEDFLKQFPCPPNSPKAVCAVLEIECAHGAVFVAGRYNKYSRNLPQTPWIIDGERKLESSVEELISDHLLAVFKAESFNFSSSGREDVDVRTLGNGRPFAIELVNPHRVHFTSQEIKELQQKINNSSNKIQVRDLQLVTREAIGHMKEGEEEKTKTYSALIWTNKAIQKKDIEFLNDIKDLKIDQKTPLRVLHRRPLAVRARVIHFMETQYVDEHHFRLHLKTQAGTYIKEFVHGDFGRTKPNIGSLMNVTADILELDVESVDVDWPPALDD
UniProt O95456: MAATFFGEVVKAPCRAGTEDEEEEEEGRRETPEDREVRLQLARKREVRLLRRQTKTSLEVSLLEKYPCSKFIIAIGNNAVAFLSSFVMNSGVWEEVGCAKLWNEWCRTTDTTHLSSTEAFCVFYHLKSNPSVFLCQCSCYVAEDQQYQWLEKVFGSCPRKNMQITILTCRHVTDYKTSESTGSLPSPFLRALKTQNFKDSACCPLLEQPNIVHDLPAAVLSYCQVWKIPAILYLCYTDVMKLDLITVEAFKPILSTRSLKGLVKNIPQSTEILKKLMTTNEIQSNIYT
UniProt O00233: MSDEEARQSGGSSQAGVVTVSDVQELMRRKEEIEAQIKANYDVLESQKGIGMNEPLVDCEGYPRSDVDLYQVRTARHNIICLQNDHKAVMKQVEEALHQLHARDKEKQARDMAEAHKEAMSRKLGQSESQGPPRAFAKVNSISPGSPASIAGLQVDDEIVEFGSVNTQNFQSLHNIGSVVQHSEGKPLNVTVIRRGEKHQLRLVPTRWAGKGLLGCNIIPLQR
UniProt Q16401: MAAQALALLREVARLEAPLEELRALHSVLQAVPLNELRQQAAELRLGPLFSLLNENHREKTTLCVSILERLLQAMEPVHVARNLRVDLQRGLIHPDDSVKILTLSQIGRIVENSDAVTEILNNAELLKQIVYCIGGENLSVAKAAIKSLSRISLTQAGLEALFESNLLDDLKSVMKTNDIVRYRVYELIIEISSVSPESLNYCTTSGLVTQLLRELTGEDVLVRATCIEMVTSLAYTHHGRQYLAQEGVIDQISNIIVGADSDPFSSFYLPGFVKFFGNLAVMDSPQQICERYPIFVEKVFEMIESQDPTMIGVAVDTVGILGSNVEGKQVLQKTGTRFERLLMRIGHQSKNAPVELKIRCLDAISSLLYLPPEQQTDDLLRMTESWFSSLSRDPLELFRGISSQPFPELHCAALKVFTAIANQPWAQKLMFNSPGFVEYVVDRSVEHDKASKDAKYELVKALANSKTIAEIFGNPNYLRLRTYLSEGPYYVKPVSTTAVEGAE
UniProt P28074: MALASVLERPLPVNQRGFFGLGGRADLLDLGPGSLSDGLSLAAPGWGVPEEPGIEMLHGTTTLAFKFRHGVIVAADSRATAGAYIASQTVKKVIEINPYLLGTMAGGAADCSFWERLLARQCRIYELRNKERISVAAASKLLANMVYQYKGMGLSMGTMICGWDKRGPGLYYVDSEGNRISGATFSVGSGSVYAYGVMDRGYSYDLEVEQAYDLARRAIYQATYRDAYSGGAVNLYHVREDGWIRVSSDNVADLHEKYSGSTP
UniProt Q06323: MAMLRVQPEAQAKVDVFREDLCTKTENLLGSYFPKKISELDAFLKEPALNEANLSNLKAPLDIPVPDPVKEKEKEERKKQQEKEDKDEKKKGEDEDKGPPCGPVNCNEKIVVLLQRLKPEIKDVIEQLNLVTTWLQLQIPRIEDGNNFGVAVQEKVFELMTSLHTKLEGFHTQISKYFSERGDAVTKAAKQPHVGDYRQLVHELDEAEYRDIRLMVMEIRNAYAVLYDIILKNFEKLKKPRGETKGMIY
UniProt P49721: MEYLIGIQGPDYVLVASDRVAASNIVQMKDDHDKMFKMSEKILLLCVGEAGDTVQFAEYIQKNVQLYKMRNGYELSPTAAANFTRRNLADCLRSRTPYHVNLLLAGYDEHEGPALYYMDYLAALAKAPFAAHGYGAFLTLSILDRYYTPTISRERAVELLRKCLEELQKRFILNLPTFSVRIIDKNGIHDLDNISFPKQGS
UniProt Q969U7: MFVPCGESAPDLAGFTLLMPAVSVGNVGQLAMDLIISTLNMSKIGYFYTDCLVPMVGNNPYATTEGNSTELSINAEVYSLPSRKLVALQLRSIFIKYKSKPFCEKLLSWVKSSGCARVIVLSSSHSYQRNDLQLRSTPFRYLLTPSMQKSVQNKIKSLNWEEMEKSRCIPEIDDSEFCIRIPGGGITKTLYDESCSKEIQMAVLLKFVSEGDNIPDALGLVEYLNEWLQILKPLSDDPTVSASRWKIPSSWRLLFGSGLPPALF

The list shows a part of the results.

Compound in this test: CC1=CC=C(C=C1)SC2=C3C=C(SC3=CN=C2)C(=O)N
As to the kind of experiment: log2 fold change, soluble protein after heating vs DMSO (PISA); higher = thermal stabilisation; K562 lysate, 10 uM; active = over 0.2 and 3.5 SD of the protein, either way, in both replicates (recomputed). Put shortly: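 Pellets of K562 cells were dounce-homogenised in PBS pH 7.4 with 1 mM MgCl2, and the crude extract was held at 1 mg/mL protein for a 30 min treatment with 10 μM compound. Aliquots were heated for 3 min over 48°C-58°C and pooled before NP-40 was added to 0.5% at 4°C. The supernatant from 21,000xg for 90 min was quantified by TMTpro 16plex LC-MS/MS with channel sums equalised. Values are reported from duplicates as log-two fold change in thermal stability relative to solvent controls.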
On to PSMA5 (UniProt P28066), for which the log2 fold change was inactive: -0.009.
For PTBP1 (UniProt P26599) the value was inactive: 0.047.
For PTPN9 (UniProt P43378) the value was inactive: -0.12.
PSTPIP2 (UniProt Q9H939): the log2 fold change is inactive: -0.034.
For PRTFDC1 (UniProt Q9NRG1) the value was inactive: -0.007; for PRUNE1 (UniProt Q86TP1), inactive: 0.003.
For the target PRPSAP2 (UniProt O60256), the log2 fold change was inactive: -0.004.
Take PSMA7 (UniProt O14818): the log2 fold change was inactive: 0.024.
For the target PSMC2 (UniProt P35998), the log2 fold change was inactive: 0.005.
For PRPS1 (UniProt B1ALA9), the log2 fold change was inactive: -0.008.
Consider PSAP isoform 3 (UniProt P07602), for which the log2 fold change was inactive: 0.042.
With PSME3 isoform 2 (UniProt P61289), the log2 fold change is inactive: 0.
To PSMB1 (UniProt P20618) belongs inactive: -0.034; to PRRC2B (UniProt Q5JSZ5), inactive: -0.011.
As to PTER (UniProt Q96BW5), the log2 fold change is inactive: -0.016.
To PSMA1 isoform 2 (UniProt P25786) belongs inactive: -0.006.
PRPF8 (UniProt Q6P2Q9): the log2 fold change was inactive: 0.012.
For PTGES3 (UniProt Q15185) the value was inactive: 0.007; for PSME2 (UniProt Q9UL46), inactive: -0.023.
To PUS10 (UniProt Q3MIT2) belongs inactive: -0.027; to PSMG1 (UniProt O95456), inactive: -0.027.
Regarding PTPN1 (UniProt P18031), the log2 fold change was inactive: 0.016.
Regarding PSMA4 (UniProt P25789), the log2 fold change was inactive: -0.005.
Regarding PSMD9 (UniProt O00233), the log2 fold change was inactive: -0.04.
Take PSMD5 (UniProt Q16401): the log2 fold change was inactive: -0.002.
For PSIP1 (UniProt O75475) the value was inactive: 0.01.
In the case of PSMB5 (UniProt P28074), the log2 fold change is inactive: 0.
Turning to PSME1 (UniProt Q06323), the log2 fold change is inactive: 0.02.
Take PTPN6 isoform 4 (UniProt P29350): the log2 fold change was inactive: 0.054.
For PUM1 isoform 3 (UniProt Q14671) the value was inactive: 0.014; for PTMS (UniProt P20962), inactive: -0.038; for PSMA6 (UniProt P60900), inactive: -0.003.
On to PSMB2 (UniProt P49721), for which the log2 fold change was inactive: -0.002.
To PSMG2 (UniProt Q969U7) belongs inactive: 0.008.
